Data as given in US20250326826A1.

Biological target: Glutathione S Transferase
Assay: ELISA, coated antigen

Binder | binding
Nb-V1 (VHH) VHH: QVQLVESGGGLVQPGGSLRLSCAASGNSAEDRLYNSYTWFRQAPGQGLEAVAAISSHFSAGLTYYADSVKGRFTISRDNSKNTLYLQMNSLRAEDTAVYYCEITSHASHNDAWSTPRTVWGQGTLVTVSS | no binding
Nb-F3 (VHH) VHH: QVQLVESGGGLVQPGGSLRLSCAASGTEDGRLLTLGGSWFRQAPGQGLEAVAAIGAGDRGGATYYADSVKGRFTISRDNSKNTLYLQMNSLRAEDTAVYYCTALYERQPQLAATKVARKWGQGTLVTVSS | no binding

No constants are given. Whether binding was seen depends on the method and setting.
